Some of the results follow.
Experiments:
Assay in all cases: glycan array binding signal (z-score within array); higher = stronger binding
Details in all cases: glycan notation: IUPAC condensed, linker removed
[1] = biological target: Gal(b1-4)GlcNAc(b1-3)Gal(b1-4)GlcNAc(b1-2)[Gal(b1-4)GlcNAc(b1-3)Gal(b1-4)GlcNAc(b1-6)]Man(a1-6)[Gal(b1-4)GlcNAc(b1-3)Gal(b1-4)GlcNAc(b1-2)Man(a1-3)]Man(b1-4)GlcNAc(b1-4)[Fuc(a1-6)]GlcNAc
How it was run: (§1)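 Arrays were curated from the Consortium for Functional Glycomics database, 3228 in total, and kept only where the protein sequence was available. Binding is expressed as a within-array Z-score. This score was averaged across arrays of the same protein sequence at different concentrations or buffers and across linkers, and negative values can be read as non-binding.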

[2] = biological target: Gal(b1-4)GlcNAc(b1-3)Gal(b1-4)GlcNAc(b1-3)Gal(b1-4)GlcNAc
How it was run: as §1

[3] = biological target: Gal(b1-4)GlcNAc(b1-3)Gal(b1-4)GlcNAc(b1-3)Gal(b1-4)GlcNAc(b1-2)Man(a1-3)[Gal(b1-4)GlcNAc(b1-3)Gal(b1-4)GlcNAc(b1-3)Gal(b1-4)GlcNAc(b1-2)Man(a1-6)]Man(b1-4)GlcNAc(b1-4)GlcNAc
How it was run: as §1

[4] = biological target: Gal(b1-4)GlcNAc(b1-3)Gal(b1-4)GlcNAc(b1-3)Gal(b1-4)GlcNAc(b1-2)Man(a1-3)[Gal(b1-4)GlcNAc(b1-3)Gal(b1-4)GlcNAc(b1-3)Gal(b1-4)GlcNAc(b1-2)Man(a1-6)]Man(b1-4)GlcNAc(b1-4)[Fuc(a1-6)]GlcNAc
How it was run: as §1

[5] = biological target: Gal(b1-4)GlcNAc(b1-3)Gal(b1-4)GlcNAc(b1-3)Gal(b1-4)GlcNAc(b1-2)[Gal(b1-4)GlcNAc(b1-3)Gal(b1-4)GlcNAc(b1-3)Gal(b1-4)GlcNAc(b1-6)]Man(a1-6)[Gal(b1-4)GlcNAc(b1-3)Gal(b1-4)GlcNAc(b1-3)Gal(b1-4)GlcNAc(b1-2)Man(a1-3)]Man(b1-4)GlcNAc(b1-4)[Fuc(a1-6)]GlcNAc
How it was run: as §1

[6] = biological target: Gal(b1-4)GlcNAc(b1-3)Gal(b1-4)GlcNAc(b1-3)Gal(b1-4)GlcNAc(b1-3)Gal(b1-4)GlcNAc(b1-2)Man(a1-3)[Gal(b1-4)GlcNAc(b1-3)Gal(b1-4)GlcNAc(b1-3)Gal(b1-4)GlcNAc(b1-3)Gal(b1-4)GlcNAc(b1-2)Man(a1-6)]Man(b1-4)GlcNAc(b1-4)GlcNAc
How it was run: as §1

[7] = biological target: Gal(b1-4)GlcNAc(b1-3)Gal(b1-4)GlcNAc(b1-3)Gal(b1-4)GlcNAc(b1-3)Gal(b1-4)GlcNAc(b1-2)Man(a1-3)[Gal(b1-4)GlcNAc(b1-3)Gal(b1-4)GlcNAc(b1-3)Gal(b1-4)GlcNAc(b1-3)Gal(b1-4)GlcNAc(b1-2)Man(a1-6)]Man(b1-4)GlcNAc(b1-4)[Fuc(a1-6)]GlcNAc
How it was run: as §1

[8] = biological target: Gal(b1-4)GlcNAc(b1-3)Gal(b1-4)GlcNAc(b1-3)Gal(b1-4)GlcNAc(b1-3)Gal(b1-4)GlcNAc(b1-2)[Gal(b1-4)GlcNAc(b1-3)Gal(b1-4)GlcNAc(b1-3)Gal(b1-4)GlcNAc(b1-3)Gal(b1-4)GlcNAc(b1-6)]Man(a1-6)[Gal(b1-4)GlcNAc(b1-3)Gal(b1-4)GlcNAc(b1-3)Gal(b1-4)GlcNAc(b1-3)Gal(b1-4)GlcNAc(b1-2)Man(a1-3)]Man(b1-4)GlcNAc(b1-4)[Fuc(a1-6)]GlcNAc
How it was run: as §1

[9] = biological target: Gal(b1-4)GlcNAc(b1-3)Gal(b1-4)GlcNAc(b1-3)Gal(b1-4)GlcNAc(b1-3)Gal(b1-4)GlcNAc(b1-3)Gal(b1-4)GlcNAc(b1-2)Man(a1-3)[Gal(b1-4)GlcNAc(b1-3)Gal(b1-4)GlcNAc(b1-3)Gal(b1-4)GlcNAc(b1-3)Gal(b1-4)GlcNAc(b1-3)Gal(b1-4)GlcNAc(b1-2)Man(a1-6)]Man(b1-4)GlcNAc(b1-4)GlcNAc
How it was run: as §1

[10] = biological target: Gal(b1-4)GlcNAc(b1-3)Gal(b1-4)GlcNAc(b1-3)Gal(b1-4)GlcNAc(b1-3)Gal(b1-4)GlcNAc(b1-3)Gal(b1-4)GlcNAc(b1-2)Man(a1-3)[Gal(b1-4)GlcNAc(b1-3)Gal(b1-4)GlcNAc(b1-3)Gal(b1-4)GlcNAc(b1-3)Gal(b1-4)GlcNAc(b1-3)Gal(b1-4)GlcNAc(b1-2)Man(a1-6)]Man(b1-4)GlcNAc(b1-4)[Fuc(a1-6)]GlcNAc
How it was run: as §1

[11] = biological target: Gal(b1-4)GlcNAc(b1-3)Gal(b1-4)GlcNAc(b1-3)Gal(b1-4)GlcNAc(b1-3)Gal(b1-4)GlcNAc(b1-3)Gal(b1-4)GlcNAc(b1-2)[Gal(b1-4)GlcNAc(b1-3)Gal(b1-4)GlcNAc(b1-3)Gal(b1-4)GlcNAc(b1-3)Gal(b1-4)GlcNAc(b1-3)Gal(b1-4)GlcNAc(b1-6)]Man(a1-6)[Gal(b1-4)GlcNAc(b1-3)Gal(b1-4)GlcNAc(b1-3)Gal(b1-4)GlcNAc(b1-3)Gal(b1-4)GlcNAc(b1-3)Gal(b1-4)GlcNAc(b1-2)Man(a1-3)]Man(b1-4)GlcNAc(b1-4)[Fuc(a1-6)]GlcNAc
How it was run: as §1

[12] = biological target: Gal(b1-4)GlcNAc(b1-3)Gal(b1-4)GlcNAc(b1-3)Gal(b1-4)GlcNAc(b1-3)Gal(b1-4)GlcNAc(b1-3)Gal(b1-4)GlcNAc(b1-3)Gal(b1-4)GlcNAc(b1-2)Man(a1-3)[Gal(b1-4)GlcNAc(b1-3)Gal(b1-4)GlcNAc(b1-3)Gal(b1-4)GlcNAc(b1-3)Gal(b1-4)GlcNAc(b1-3)Gal(b1-4)GlcNAc(b1-3)Gal(b1-4)GlcNAc(b1-2)Man(a1-6)]Man(b1-4)GlcNAc(b1-4)GlcNAc
How it was run: as §1

[13] = biological target: Gal(b1-4)GlcNAc(b1-3)Gal(b1-4)GlcNAc(b1-3)GalNAc
How it was run: as §1

[14] = biological target: Gal(b1-4)GlcNAc(b1-3)Gal(b1-4)GlcNAc(b1-3)[Gal(b1-4)GlcNAc(b1-3)Gal(b1-4)GlcNAc(b1-6)]GalNAc
How it was run: as §1

[15] = biological target: Gal(b1-4)GlcNAc(b1-3)Gal(b1-4)GlcNAc(b1-6)[Gal(b1-3)]GalNAc
How it was run: as §1

[16] = biological target: Gal(b1-4)GlcNAc(b1-3)Gal(b1-4)[Fuc(a1-3)]GlcNAc(b1-3)Gal(b1-4)[Fuc(a1-3)]GlcNAc
How it was run: as §1

[17] = biological target: Gal(b1-4)GlcNAc(b1-3)GalNAc
How it was run: as §1

[18] = biological target: Gal(b1-4)GlcNAc(b1-3)[Fuc(a1-3)GlcNAc(b1-6)]Gal(b1-4)Glc
How it was run: as §1

[19] = biological target: Gal(b1-4)GlcNAc(b1-3)[Gal(b1-4)GlcNAc(b1-6)]Gal(b1-4)GlcNAc
How it was run: as §1

[20] = biological target: Gal(b1-4)GlcNAc(b1-3)[GlcNAc(b1-6)]Gal(b1-4)GlcNAc
How it was run: as §1

[21] = biological target: Gal(b1-4)GlcNAc(b1-6)Gal(b1-4)GlcNAc
How it was run: as §1

[22] = biological target: Gal(b1-4)GlcNAc(b1-6)GalNAc
How it was run: as §1

[23] = biological target: Gal(b1-4)GlcNAc(b1-6)[Gal(b1-3)]GalNAc
How it was run: as §1

[24] = biological target: Gal(b1-4)GlcNAc(b1-6)[Gal(b1-4)GlcNAc(b1-3)]GalNAc
How it was run: as §1

Gal(b1-4)GlcNAc6P = biological target: Gal(b1-4)GlcNAc6P
How it was run: as §1

Gal(b1-6)Gal = biological target: Gal(b1-6)Gal
How it was run: as §1

Gal3S(b1-3)GalNAc = biological target: Gal3S(b1-3)GalNAc
How it was run: as §1

Gal3S(b1-3)GlcNAc = biological target: Gal3S(b1-3)GlcNAc
How it was run: as §1

[25] = biological target: Gal3S(b1-3)[Fuc(a1-4)]GlcNAc
How it was run: as §1

Gal3S(b1-4)Glc = biological target: Gal3S(b1-4)Glc
How it was run: as §1

B1: GroEL (Clostridium difficile), Q18CT5 (protein)
chain: MAKEIKFSEETRRALEAGVNKLADTVKVTLGPKGRNVILDKKFGSPLITNDGVTIAKEIELEDRFENMGAQLVKEVATKTNDVAGDGTTTATVLAQAIIREGLKNVTAGANPILLRKGIQKAVTVAVEELKNQSRIVETQEAISQVASISAGDEEVGKLIAEAMEIVGKDGVITVEESQTMNTELDAVEGMQFDRGFVSAYMVTDVDKMEAVLNDPYILITDKKISNIQELLPVLEQIVQQGKKLLIIAEDVEGEALSTLVVNKLRGTFDVVAVKAPGFGDRRKEMLQDIAILTGAQVISEELGYDLKEADLSMLGRASSVKVTKESTTIVDGSGDKKAIEDRVTQIKHQVEQTTSDFDREKLMERLAKLAGGVAVVKVGAATEVELKERKLRIEDALNATRAAVEEGIVAGGGTAFVSVIPAIGTLIESLEGEVKLGAQIVKKALEEPLRQIAINAGLEGAVIVQNVVNSEAETGFDALNEKYVNMIEAGIVDPTKVSRSALQNAASIASTFLTTEAAVADLPEKEDAGMPGMGGGMPGMM
- glycan array binding signal (z-score) [1]: 0.994
- glycan array binding signal (z-score) [2]: 1.42
- glycan array binding signal (z-score) [3]: 0.878
- glycan array binding signal (z-score) [4]: 0.085
- glycan array binding signal (z-score) [5]: 3.44
- glycan array binding signal (z-score) [6]: -1.18
- glycan array binding signal (z-score) [7]: 0.552
- glycan array binding signal (z-score) [8]: 1.89
- glycan array binding signal (z-score) [9]: 0.162
- glycan array binding signal (z-score) [10]: 0.646
- glycan array binding signal (z-score) [11]: 1.02
- glycan array binding signal (z-score) [12]: 1.99
- glycan array binding signal (z-score) [13]: -1.96
- glycan array binding signal (z-score) [14]: 1.2
- glycan array binding signal (z-score) [15]: 2.77
- glycan array binding signal (z-score) [16]: -1.13
- glycan array binding signal (z-score) [17]: -0.517
- glycan array binding signal (z-score) [18]: -0.128
- glycan array binding signal (z-score) [19]: -0.741
- glycan array binding signal (z-score) [20]: -0.235
- glycan array binding signal (z-score) [21]: -0.638
- glycan array binding signal (z-score) [22]: -0.35
- glycan array binding signal (z-score) [23]: -1.14
- glycan array binding signal (z-score) [24]: -0.427
- glycan array binding signal (z-score) (Gal(b1-4)GlcNAc6P): 0.468
- glycan array binding signal (z-score) (Gal(b1-6)Gal): -0.099
- glycan array binding signal (z-score) (Gal3S(b1-3)GalNAc): 2.59
- glycan array binding signal (z-score) (Gal3S(b1-3)GlcNAc): 0.025
- glycan array binding signal (z-score) [25]: -0.243
- glycan array binding signal (z-score) (Gal3S(b1-4)Glc): 0.546
